From the supplement of paper PMC6411743 come the findings set out here.

Chains of the proteins cited; added tags and fusions are not shown. Lines headed by an entry give the natural chain unless they say otherwise; changes in a name come on top.
UniProt P17483: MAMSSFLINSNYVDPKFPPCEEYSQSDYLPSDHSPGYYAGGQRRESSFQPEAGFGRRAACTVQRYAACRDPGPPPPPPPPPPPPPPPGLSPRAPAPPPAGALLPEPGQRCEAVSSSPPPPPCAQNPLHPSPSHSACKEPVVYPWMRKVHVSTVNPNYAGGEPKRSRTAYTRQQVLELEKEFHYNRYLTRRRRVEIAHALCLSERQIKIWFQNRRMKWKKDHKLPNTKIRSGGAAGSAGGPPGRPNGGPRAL
UniProt P32780: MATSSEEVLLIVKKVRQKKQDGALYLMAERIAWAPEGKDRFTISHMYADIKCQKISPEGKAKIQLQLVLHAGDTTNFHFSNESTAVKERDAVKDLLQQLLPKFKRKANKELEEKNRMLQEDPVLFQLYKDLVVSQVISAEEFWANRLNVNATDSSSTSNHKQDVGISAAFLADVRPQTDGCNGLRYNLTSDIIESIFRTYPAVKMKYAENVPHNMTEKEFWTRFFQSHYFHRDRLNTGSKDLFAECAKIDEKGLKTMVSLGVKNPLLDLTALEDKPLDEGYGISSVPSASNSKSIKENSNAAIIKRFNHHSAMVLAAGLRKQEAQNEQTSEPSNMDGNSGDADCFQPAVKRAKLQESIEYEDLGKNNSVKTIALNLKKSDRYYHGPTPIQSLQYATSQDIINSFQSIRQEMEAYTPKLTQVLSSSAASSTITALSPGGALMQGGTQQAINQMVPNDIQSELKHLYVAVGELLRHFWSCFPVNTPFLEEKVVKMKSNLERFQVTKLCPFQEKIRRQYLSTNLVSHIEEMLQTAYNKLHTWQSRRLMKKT
UniProt P31327: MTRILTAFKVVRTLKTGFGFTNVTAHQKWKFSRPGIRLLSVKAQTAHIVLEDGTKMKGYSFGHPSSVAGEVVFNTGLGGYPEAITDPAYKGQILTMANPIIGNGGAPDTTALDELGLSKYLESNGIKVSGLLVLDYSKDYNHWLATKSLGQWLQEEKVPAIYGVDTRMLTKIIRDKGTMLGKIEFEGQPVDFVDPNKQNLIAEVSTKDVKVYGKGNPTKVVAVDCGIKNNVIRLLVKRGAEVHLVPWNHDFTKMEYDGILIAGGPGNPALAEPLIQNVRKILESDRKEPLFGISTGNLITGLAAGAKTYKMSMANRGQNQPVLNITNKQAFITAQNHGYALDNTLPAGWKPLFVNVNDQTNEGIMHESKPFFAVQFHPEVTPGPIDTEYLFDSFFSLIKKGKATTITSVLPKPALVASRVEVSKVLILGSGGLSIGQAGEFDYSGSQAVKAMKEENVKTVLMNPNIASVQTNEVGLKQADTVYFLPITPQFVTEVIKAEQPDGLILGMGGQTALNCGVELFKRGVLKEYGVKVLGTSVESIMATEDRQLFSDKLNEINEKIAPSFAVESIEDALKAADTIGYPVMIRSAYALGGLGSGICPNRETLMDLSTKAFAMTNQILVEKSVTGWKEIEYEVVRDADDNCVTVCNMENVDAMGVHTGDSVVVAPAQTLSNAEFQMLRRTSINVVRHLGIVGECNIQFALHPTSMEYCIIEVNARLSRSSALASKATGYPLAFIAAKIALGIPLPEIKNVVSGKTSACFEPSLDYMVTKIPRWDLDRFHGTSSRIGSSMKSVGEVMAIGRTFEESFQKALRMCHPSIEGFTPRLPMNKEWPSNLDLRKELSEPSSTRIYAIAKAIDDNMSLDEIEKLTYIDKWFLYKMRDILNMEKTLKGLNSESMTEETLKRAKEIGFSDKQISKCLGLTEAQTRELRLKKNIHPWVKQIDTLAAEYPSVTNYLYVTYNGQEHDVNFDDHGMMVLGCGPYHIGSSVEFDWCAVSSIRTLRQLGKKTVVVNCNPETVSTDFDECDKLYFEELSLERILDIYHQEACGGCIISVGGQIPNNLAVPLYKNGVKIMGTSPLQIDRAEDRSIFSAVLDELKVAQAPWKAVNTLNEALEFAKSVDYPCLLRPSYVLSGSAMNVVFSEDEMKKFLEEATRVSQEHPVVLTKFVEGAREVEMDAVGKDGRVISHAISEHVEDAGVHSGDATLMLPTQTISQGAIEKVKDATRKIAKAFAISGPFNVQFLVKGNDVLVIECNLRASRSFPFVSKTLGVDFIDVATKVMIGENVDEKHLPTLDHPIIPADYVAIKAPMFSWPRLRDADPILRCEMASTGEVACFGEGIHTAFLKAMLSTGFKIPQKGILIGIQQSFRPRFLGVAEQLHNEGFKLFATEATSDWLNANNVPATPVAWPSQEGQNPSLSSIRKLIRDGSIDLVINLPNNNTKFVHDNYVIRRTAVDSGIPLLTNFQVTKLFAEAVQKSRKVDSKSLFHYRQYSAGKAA
UniProt P33981: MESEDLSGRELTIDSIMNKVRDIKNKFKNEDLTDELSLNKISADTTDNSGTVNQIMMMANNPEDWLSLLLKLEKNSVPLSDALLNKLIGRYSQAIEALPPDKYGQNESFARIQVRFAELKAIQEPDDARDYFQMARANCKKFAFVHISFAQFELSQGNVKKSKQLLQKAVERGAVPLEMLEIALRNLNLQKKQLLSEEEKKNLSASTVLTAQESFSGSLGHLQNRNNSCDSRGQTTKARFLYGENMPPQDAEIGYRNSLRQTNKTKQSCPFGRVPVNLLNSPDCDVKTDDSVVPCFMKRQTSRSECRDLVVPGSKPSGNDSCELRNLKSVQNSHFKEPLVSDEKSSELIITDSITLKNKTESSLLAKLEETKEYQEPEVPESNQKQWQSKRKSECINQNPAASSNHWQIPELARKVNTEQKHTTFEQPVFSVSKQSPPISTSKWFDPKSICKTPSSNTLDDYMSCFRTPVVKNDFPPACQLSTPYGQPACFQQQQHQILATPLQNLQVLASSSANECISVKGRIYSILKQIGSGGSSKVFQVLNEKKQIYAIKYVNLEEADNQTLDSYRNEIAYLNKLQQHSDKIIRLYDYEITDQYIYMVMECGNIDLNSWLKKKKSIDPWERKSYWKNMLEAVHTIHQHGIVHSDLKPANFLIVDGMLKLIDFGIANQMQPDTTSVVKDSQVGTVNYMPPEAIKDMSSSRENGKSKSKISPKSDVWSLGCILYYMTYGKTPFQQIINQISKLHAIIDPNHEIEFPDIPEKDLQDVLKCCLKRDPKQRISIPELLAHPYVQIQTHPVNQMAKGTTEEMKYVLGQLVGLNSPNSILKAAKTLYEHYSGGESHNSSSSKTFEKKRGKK
UniProt P34897: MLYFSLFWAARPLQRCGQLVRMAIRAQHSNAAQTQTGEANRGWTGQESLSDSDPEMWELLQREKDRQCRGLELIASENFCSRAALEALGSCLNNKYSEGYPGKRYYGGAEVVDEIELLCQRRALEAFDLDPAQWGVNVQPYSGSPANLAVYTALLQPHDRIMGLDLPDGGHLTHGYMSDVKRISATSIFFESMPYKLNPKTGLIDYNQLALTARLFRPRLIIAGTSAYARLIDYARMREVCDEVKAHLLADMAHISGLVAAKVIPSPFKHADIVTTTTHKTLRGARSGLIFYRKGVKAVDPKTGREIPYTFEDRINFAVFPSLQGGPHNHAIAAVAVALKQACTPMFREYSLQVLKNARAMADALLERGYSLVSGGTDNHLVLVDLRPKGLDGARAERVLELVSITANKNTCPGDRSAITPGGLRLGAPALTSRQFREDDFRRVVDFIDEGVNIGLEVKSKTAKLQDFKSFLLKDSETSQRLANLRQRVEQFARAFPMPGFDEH
UniProt P19793: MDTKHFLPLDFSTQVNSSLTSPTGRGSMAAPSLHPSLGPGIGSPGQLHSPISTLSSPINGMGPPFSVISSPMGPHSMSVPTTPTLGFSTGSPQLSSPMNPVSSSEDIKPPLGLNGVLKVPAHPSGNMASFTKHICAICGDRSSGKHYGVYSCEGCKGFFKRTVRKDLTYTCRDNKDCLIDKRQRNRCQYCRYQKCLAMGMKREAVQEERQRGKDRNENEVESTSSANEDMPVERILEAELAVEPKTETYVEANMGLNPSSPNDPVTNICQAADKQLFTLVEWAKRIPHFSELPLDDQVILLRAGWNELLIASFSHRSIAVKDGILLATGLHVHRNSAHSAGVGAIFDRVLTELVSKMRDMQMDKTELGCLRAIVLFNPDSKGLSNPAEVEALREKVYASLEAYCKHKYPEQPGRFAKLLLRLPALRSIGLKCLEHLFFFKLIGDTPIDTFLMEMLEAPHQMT
UniProt P32019: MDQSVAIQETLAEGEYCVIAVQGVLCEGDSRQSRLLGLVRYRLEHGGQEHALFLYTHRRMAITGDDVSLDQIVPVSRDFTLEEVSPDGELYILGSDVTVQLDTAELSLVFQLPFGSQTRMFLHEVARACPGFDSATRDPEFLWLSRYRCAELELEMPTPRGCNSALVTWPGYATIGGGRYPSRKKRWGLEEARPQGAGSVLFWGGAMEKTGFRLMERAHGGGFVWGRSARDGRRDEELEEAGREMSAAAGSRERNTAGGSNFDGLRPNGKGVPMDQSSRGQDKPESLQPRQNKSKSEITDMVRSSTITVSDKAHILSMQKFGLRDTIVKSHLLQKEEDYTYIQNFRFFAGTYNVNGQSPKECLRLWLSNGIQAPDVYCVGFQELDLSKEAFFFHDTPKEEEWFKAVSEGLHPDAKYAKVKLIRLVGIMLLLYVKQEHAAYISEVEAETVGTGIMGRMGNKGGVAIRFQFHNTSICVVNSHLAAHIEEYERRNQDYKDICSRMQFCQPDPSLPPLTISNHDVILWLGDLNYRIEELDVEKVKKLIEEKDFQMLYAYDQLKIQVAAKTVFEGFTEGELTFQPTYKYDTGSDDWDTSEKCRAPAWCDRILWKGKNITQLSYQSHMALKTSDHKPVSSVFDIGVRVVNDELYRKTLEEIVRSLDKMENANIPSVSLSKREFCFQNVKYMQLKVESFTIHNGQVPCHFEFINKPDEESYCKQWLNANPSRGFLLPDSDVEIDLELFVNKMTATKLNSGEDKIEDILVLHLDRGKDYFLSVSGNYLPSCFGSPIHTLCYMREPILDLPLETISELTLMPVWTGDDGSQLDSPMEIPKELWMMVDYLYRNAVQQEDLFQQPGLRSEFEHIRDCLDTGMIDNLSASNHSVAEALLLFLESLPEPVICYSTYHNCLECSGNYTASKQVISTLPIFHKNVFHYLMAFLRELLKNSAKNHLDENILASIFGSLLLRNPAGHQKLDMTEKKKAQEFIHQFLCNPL
UniProt P17568, whole entry: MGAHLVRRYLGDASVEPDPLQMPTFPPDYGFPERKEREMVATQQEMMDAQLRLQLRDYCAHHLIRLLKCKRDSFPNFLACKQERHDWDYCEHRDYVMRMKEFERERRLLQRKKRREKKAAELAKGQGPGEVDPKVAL
UniProt P21283, whole entry: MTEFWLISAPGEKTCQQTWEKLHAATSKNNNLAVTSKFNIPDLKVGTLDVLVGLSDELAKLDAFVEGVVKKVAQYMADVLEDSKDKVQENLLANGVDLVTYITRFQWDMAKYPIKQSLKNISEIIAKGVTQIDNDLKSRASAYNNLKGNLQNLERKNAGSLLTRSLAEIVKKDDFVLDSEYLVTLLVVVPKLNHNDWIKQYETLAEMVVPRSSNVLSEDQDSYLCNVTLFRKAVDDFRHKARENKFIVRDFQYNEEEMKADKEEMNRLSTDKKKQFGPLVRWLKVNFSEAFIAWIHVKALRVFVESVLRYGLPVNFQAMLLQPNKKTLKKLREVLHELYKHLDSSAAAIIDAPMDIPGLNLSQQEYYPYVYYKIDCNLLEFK
UniProt P17844: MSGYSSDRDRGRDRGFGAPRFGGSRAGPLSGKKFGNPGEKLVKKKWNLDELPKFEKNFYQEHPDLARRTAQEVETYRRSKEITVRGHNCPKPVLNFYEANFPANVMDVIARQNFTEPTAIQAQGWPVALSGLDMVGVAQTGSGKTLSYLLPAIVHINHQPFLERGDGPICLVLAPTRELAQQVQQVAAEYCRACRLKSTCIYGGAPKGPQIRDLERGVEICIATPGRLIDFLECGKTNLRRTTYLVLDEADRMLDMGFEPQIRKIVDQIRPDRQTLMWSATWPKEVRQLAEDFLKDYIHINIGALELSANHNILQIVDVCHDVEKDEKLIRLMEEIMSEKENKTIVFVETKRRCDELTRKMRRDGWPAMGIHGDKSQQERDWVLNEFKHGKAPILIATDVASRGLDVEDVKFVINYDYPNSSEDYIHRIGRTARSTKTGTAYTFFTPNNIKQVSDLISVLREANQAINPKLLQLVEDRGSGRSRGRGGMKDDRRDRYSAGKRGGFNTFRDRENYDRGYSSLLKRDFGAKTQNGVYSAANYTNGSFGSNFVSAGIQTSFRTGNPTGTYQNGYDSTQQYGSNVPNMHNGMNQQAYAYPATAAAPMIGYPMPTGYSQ
UniProt P17041: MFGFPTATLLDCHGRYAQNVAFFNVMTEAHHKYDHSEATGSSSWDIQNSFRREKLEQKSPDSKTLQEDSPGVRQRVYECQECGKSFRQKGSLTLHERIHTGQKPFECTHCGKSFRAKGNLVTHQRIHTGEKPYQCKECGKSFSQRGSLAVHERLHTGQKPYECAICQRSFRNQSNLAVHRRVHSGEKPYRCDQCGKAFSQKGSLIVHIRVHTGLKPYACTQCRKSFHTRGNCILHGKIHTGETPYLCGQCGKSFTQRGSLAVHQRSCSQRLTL

± gives the standard deviation of the averaged measurements. This is a selection; strong and weak results do not stand in their true shares.

Compound in the assay: Nc1ncnc2c1ncn2[C@@H]1O[C@H](COP(=O)(O)OP(=O)(O)OP(=O)(O)O)[C@@H](O)[C@H]1O [adenosine triphosphate]
The assay can be described thus: NP40-soluble protein abundance relative to vehicle (solubility fold change) (ratio); higher = more soluble protein in presence of ATP. Conditions: concentration: 8mM. The essentials:
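Jurkat crude lysate (Dounce-homogenised) was treated with eight concentrations from 0.1 to 10 mM for 10 min at room temperature, then 3 min at 37 °C. It was solubilised with 0.8% NP40 and benzonase (60 min, 4 °C) and ultracentrifuged, and the supernatant was TMT-labelled for LC-MS/MS. Intensities were vsn-normalised, and the value is the fold change against the NP40-processed vehicle per replicate, from three independent experiments.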
Take P30042 (UniProt P0DPI2): the NP40-soluble protein abundance came to 0.942 ± 0.061.

Consider M6PR (UniProt P20645), for which the NP40-soluble protein abundance stood at 0.925 ± 0.039.

Regarding HOXB4 (UniProt P17483), the NP40-soluble protein abundance came out at 1.02 ± 0.16.

Turning to UniProt P32519 and related entries, the NP40-soluble protein abundance was 0.917 ± 0.05.

Regarding ATP6V1B2 (UniProt P21281), the NP40-soluble protein abundance was 0.993 ± 0.012.

As to UniProt P32780 and related entries, the NP40-soluble protein abundance was 1.07 ± 0.042.

UniProt P31327 and related entries: the NP40-soluble protein abundance turned out to be 1 ± 0.14.

On to UniProt P23396 and related entries, for which the NP40-soluble protein abundance was determined as 0.65 ± 0.083.

As to ZKSCAN1 (UniProt P17029), the NP40-soluble protein abundance is 0.914 ± 0.14.

Take UniProt P22314 and related entries: the NP40-soluble protein abundance came out at 0.956 ± 0.036.

As to ABCD3 (UniProt P28288), the NP40-soluble protein abundance was 1.11 ± 0.067.

Regarding UniProt P18433 and related entries, the NP40-soluble protein abundance amounted to 1.03 ± 0.13.

Regarding AKT1 (UniProt P31749), the NP40-soluble protein abundance came out at 1.01 ± 0.045.

On to UniProt P33981 and related entries, for which the NP40-soluble protein abundance turned out to be 1.11 ± 0.036.

In the case of UniProt P34897 and related entries, the NP40-soluble protein abundance worked out at 0.958 ± 0.035.

Turning to UniProt P31948 and related entries, the NP40-soluble protein abundance came to 0.996 ± 0.048.

Consider ACO1 (UniProt P21399), for which the NP40-soluble protein abundance was found to be 0.982 ± 0.061.

For GOT1 (UniProt P17174), the NP40-soluble protein abundance was 0.914 ± 0.014.

On to IGFBP2 (UniProt P18065), for which the NP40-soluble protein abundance stood at 0.995 ± 0.029.

As for CBL (UniProt P22681), the NP40-soluble protein abundance came out at 0.966 ± 0.017.

UniProt P17010 and related entries: the NP40-soluble protein abundance amounted to 0.932 ± 0.26.

Take UniProt P33316 and related entries: the NP40-soluble protein abundance amounted to 0.965 ± 0.031.

For the target RFX1 (UniProt P22670), the NP40-soluble protein abundance came to 0.973 ± 0.027.

As for UniProt P19793 and related entries, the NP40-soluble protein abundance was found to be 0.8555 ± 0.0076.

With UniProt P32019 and related entries, the NP40-soluble protein abundance came to 1 ± 0.14.

With TFE3 (UniProt P19532), the NP40-soluble protein abundance was 0.967 ± 0.11.

For the target UniProt P18858 and related entries, the NP40-soluble protein abundance is 0.948 ± 0.018.

Consider NDUFB7 (UniProt P17568), for which the NP40-soluble protein abundance came to 0.924 ± 0.031.

For GDI1 (UniProt P31150), the NP40-soluble protein abundance was 1.01 ± 0.077.

As for NMT1 (UniProt P30419), the NP40-soluble protein abundance was 1.113 ± 0.011.

On to HNRNPA2B1 (UniProt P22626), for which the NP40-soluble protein abundance is 1.18 ± 0.2.

ERCC2 (UniProt P18074): the NP40-soluble protein abundance came to 1.1 ± 0.056.

With PRKAR1B (UniProt P31321), the NP40-soluble protein abundance was 1.11 ± 0.026.

Regarding ATP6V1C1 (UniProt P21283), the NP40-soluble protein abundance stood at 0.98 ± 0.032.

As for “UniProt P21333-2|P21333 and related entries”, the NP40-soluble protein abundance was determined as 0.909 ± 0.029.

Take DDX5 (UniProt P17844): the NP40-soluble protein abundance came to 1.24 ± 0.34.

UniProt P17041: the NP40-soluble protein abundance is 0.867 ± 0.022.

Turning to UniProt P21964 and related entries, the NP40-soluble protein abundance came to 0.953 ± 0.054.
